Data published in paper PMC6232469.
No constants are given. Whether binding was seen depends on the method and setting. Binding seen in cells or lysates may run through a third protein. Here binding means that the protein was enriched with, or labelled near, the bait; the list need not be complete.

Amino acid sequences for entries named in this document (tags omitted).
UniProt P03431: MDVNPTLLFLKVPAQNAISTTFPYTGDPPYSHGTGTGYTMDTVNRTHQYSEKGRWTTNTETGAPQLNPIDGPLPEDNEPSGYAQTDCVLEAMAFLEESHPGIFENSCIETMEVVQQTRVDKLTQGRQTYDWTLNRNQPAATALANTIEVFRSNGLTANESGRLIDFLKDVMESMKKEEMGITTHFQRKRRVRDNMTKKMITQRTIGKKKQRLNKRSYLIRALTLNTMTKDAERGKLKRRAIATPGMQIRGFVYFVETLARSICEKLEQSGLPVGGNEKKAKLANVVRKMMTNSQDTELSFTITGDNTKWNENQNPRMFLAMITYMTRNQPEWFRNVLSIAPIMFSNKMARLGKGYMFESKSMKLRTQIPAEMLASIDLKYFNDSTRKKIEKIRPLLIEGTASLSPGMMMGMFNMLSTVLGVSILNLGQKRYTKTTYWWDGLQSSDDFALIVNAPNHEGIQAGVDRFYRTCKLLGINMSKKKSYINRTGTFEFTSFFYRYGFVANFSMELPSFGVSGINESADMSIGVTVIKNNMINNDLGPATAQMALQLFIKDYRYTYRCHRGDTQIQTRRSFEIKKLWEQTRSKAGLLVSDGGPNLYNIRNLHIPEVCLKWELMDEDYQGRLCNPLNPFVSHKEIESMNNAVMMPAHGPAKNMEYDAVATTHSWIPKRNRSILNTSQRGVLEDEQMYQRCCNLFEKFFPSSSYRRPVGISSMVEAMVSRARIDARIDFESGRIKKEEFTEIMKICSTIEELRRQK
UniProt Q16531: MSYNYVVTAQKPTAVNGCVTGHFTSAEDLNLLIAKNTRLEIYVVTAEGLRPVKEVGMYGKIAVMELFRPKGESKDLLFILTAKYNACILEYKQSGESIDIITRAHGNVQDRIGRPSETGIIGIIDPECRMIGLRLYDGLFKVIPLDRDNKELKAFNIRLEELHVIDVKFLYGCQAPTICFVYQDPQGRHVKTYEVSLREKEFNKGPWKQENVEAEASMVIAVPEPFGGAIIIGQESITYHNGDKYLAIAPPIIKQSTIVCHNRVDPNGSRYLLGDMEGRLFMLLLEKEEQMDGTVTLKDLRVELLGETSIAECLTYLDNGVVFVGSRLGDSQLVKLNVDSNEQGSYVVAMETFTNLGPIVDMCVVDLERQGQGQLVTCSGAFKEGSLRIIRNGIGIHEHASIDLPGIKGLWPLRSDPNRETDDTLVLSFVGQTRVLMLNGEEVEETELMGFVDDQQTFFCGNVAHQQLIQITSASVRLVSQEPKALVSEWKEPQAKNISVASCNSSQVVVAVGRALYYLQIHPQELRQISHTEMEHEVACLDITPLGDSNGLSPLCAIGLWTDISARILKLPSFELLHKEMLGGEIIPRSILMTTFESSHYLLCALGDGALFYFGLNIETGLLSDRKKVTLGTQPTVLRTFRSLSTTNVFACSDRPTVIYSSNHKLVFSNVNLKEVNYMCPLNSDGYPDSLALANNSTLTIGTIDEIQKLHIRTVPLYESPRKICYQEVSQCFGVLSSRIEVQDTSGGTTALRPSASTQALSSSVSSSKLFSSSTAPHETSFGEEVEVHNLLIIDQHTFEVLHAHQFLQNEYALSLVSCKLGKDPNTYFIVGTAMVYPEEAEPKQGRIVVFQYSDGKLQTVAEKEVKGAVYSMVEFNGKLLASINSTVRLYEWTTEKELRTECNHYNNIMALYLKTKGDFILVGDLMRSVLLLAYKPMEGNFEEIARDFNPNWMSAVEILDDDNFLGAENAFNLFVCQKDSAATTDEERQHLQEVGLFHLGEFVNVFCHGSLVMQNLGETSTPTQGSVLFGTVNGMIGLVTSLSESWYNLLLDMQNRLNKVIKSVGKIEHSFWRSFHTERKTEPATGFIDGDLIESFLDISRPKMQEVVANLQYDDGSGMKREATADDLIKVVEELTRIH
UniProt P68104: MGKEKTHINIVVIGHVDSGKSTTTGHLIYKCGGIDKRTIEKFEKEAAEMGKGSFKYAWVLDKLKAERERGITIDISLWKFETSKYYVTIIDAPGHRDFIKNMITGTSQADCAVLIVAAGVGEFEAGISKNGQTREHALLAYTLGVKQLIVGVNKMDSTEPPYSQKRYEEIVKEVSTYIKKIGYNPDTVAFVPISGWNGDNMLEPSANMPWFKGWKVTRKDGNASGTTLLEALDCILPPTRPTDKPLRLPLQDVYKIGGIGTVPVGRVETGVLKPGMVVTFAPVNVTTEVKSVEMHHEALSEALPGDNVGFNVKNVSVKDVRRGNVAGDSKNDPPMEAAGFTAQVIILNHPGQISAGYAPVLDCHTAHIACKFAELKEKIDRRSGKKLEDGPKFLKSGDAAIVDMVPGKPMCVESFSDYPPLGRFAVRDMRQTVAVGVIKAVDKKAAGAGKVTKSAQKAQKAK
UniProt P62136: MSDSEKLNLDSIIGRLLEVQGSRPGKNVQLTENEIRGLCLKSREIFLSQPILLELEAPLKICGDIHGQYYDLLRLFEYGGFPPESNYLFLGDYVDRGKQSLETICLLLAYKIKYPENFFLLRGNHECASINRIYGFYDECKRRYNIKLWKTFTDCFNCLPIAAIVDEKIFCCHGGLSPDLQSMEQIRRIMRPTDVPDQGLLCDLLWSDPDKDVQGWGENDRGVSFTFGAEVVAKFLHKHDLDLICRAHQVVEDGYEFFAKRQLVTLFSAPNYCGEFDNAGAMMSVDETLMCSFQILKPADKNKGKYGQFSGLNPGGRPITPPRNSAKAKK

Each substance was assayed against Flag-PB1 (Flag-tagged polymerase basic protein 1 of A/Puerto Rico/8/1934 H1N1) (influenza A virus A/Puerto Rico/8/1934 (PR8, H1N1)) (UniProt P03431) (assay: affinity purification with mass spectrometry).

| Substance | binding |
| --- | --- |
| DDB1 (from UniProt Q16531 1-1140) | binds |
| EEF1A1 (from UniProt P68104 1-462) | binds |
| PPP1CA (from UniProt P62136 1-330) | binds |
